# Measurements as given in PubChem BioAssay AID540276 (National Center for Advancing Translational Sciences (NCATS), 2011).
# In all, about 300,000 compounds went through this assay and about 5,400 (1.8%) were called active. This list was built around the results that the source calls inconclusive (neither active nor inactive); the mix of calls is not that of the screen. Calls come from the whole dose curve; tested in HEK293 cells. A potency beside an inconclusive call is a rough fit, not a confirmed value.
# Assay: qHTS for inhibitors of binding or entry into cells for Marburg Virus
# Conditions: Marburg virus pseudotyped entry inhibition, cell reporter; activity change, negative = inhibition: at 37.8 µM (top of the series) unless noted
# % is set by controls: 0 for no effect and ±100 for the full control effect; potency is the fitted concentration of half-maximal effect.
Structure (SMILES),"activity change, negative = inhibition",Potency
CCNC(=S)N/N=C/c1ccc(C(=O)O)cc1,inactive: -6.68%,–
COc1cc2c(cc1OC)CN(C(=O)c1cccc(S(=O)(=O)N3CCc4ccccc43)c1)CC2,–,active: 3.98 µM
S=c1[nH]c(-c2ccccc2)cn1/N=C/c1cccc2ccccc12,–,"inconclusive: 3.16 µM [inhibitor, partial curve, poor fit]"
Cc1ccc(-c2nnc(N(C)C(=O)c3cccnc3)s2)cc1,inactive: -7.53%,–
CCSc1nnc2c(n1)OC=Nc1ccc(Br)cc1-2,inactive: 8.07%,–
CC1CCC(C(C)C)C(OC(=O)CSc2nnc(N)s2)C1 (stereo not given),–,"inconclusive: 6.31 µM [inhibitor, single point]"
O=C(Cn1cnc([N+](=O)[O-])c1)Nc1cc(Oc2ccc(Cl)cc2Cl)cc([N+](=O)[O-])c1,–,"inconclusive: 28.2 µM [inhibitor, single point]"
Cc1ccc(C(C(=O)NC2CCCC2)N(Cc2ccc(F)cc2)C(=O)c2snc(C(N)=O)c2N)o1 (stereo not given),–,"inconclusive: 35.5 µM [inhibitor, single point]"
CCOc1ccc(S(=O)(=O)NCCC(=O)NCCOc2ccccc2)cc1,inactive: -21.5% [at 46.1 µM],–
O=C(Nc1cccc(-c2nc3ccccc3s2)c1)c1cc(=O)c2ccccc2o1,inactive: 12.9%,–
C=CCC(Nc1ccccc1)C12C=CC(O1)C(C(=O)OC)=C2C(=O)OC (stereo not given),–,"inconclusive: 22.4 µM [inhibitor, single point]"
O=C(NCc1ccccc1)N1CCN(c2ccc(Cl)c(Cl)c2)CC1,–,"inconclusive: 7.08 µM [inhibitor, partial curve, poor fit]"
COc1cc(/C=C/C(=O)NCCN2CCOCC2)cc(OC)c1OC,–,"inconclusive: 11.2 µM [activator, partial curve, poor fit]"
O=C(NCc1ccccc1)C(c1ccccc1F)N(CC1CCCO1)C(=O)c1ccccn1 (stereo not given),–,"inconclusive: 5.62 µM [inhibitor, partial curve, poor fit]"
O=[N+]([O-])c1ccc(S(=O)(=O)NCCCc2ccccc2)cc1,–,"inconclusive: 11.2 µM [inhibitor, single point]"
CCOC(=O)/C=C(\C)N1N=C(c2ccccc2)CC1c1ccccc1 (stereo not given),–,"inconclusive: 10 µM [activator, partial curve, poor fit]"
O=C(Nc1ccc(F)c(Cl)c1)C1CCN(c2ncccn2)CC1,inactive: 1.82% [at 46.1 µM],–
Cc1ccc(S(=O)(=O)N(C)CC(=O)Nc2cc(C)ccn2)cc1,–,"inconclusive: 31.6 µM [activator, single point]"
Clc1ccc(Cl)c(OCCCCNCc2ccccc2)c1,–,"inconclusive: 1.16 µM [inhibitor, single point]"
CN(C)c1ccc2c(O)cc(=O)n(C)c2c1,–,"inconclusive: 13 µM [inhibitor, single point]"
CCCN1Cc2cccc(C(=O)NC(CC(=O)OCC)c3ccc(OC(C)C)cc3)c2C1=O (stereo not given),–,"inconclusive: 7.94 µM [inhibitor, partial curve, poor fit]"
O=C(NCCCCNC(=O)c1ccccc1Cl)c1ccccc1Cl,inactive: 5.55% [at 46.1 µM],–
Cc1ccc(C)c(N2CCN(c3nc4ccccc4n4nnnc34)CC2)c1,–,"inconclusive: 28.2 µM [activator, partial curve]"
CCOC(=O)c1ccc(N/C=C/C(=O)c2ccco2)cc1,–,"inconclusive: 20.6 µM [inhibitor, single point]"

Structure (SMILES),"activity change, negative = inhibition",Potency
COc1ccc2c(c1)c(C(=O)O)c(C)n2-c1ccccc1,inactive: 0.266% [at 46.1 µM],–
Cc1ccc(C(=O)Nc2cccc(C(=O)NCc3ccccc3)c2)cc1,inactive: -11.7%,–
NC(=NC(=O)c1ccccc1)N1CCN(C(c2ccccc2)c2ccccc2)CC1,inactive: -20.6% [at 46.1 µM],–
Cc1ccccc1NC(=O)c1cc2ccccc2o1,–,"inconclusive: 6.31 µM [activator, single point]"
CCOC(=O)C(=O)NCC(c1ccco1)S(=O)(=O)c1cccs1 (stereo not given),inactive: -11.8% [at 46.1 µM],–
Cn1cccc1-c1nc2ccc(NC(=O)c3ccc([N+](=O)[O-])cc3)cc2[nH]1,inactive: 25.9%,–
Clc1ccc(-c2nnn3c2nc(N2CCCCC2)c2ccccc23)cc1,inactive: -2.15% [at 46.1 µM],–
O=S(=O)(c1ccc2c(c1)C(=NO)c1cc(S(=O)(=O)N3CCCCC3)ccc1-2)N1CCCCC1,–,"inconclusive: 2.51 µM [inhibitor, full curve, poor fit]"
CC(C)CC(NC(N)=O)C(=O)Nc1ccc(Cl)c(Cl)c1 (stereo not given),–,"inconclusive: 35.5 µM [inhibitor, partial curve, poor fit]"
CS(=O)(=O)N(CC(=O)Nc1ccccc1Sc1ccccc1)C1CCCCC1,–,"inconclusive: 23.1 µM [inhibitor, single point]"
CCC(=O)OCCn1c(=O)c2cc3c(=O)n(CCOC(=O)CC)c(=O)c3cc2c1=O,inactive: 10.7%,–
CC(Sc1nnc(-c2ccccc2)c(-c2ccccc2)n1)C(=O)NCC1CCCO1 (stereo not given),–,"inconclusive: 10 µM [inhibitor, partial curve, poor fit]"
CC(=O)N1CCN(c2nc(-c3cccs3)nc3ccccc23)CC1,–,"inconclusive: 31.6 µM [inhibitor, single point]"
CSc1ccc(CCNC(=O)CN2C(=O)COc3ccc(S(=O)(=O)N4CCCC4)cc32)cc1,–,"inconclusive: 0.562 µM [activator, full curve, poor fit]"
C/C(Cl)=C/Cn1c(SCc2ccc(Cl)cc2)nc2c1c(=O)[nH]c(=O)n2C,–,"inconclusive: 3.98 µM [activator, partial curve, poor fit]"
COc1ccc(-c2n(Cc3ccccc3)c3ccccc3[n+]2Cc2ccccc2)cc1,–,active: 5.8 µM
CCn1c(-c2cc3c(C(F)(F)F)nn(C)c3s2)n[nH]c1=S,inactive: -25.9%,–
CC(=O)N(C)c1ccc(OCC(O)CN(c2ccccc2C)S(=O)(=O)c2ccc(C)cc2)cc1 (stereo not given),inactive: -2.29%,–
CCOC(=O)c1ccc(S(=O)(=O)N2CCN(Cc3cc4c(cc3O)OCO4)CC2)cc1,–,"inconclusive: 17.8 µM [activator, partial curve, poor fit]"
O=C(Nc1ccc2c(c1)OCO2)c1c[nH]c(=O)n(-c2ccc(F)cc2)c1=O,inactive: 3.75%,–
COC1OC2COC(c3ccccc3)OC2C(OC(=O)c2ccccc2)C1OC(=O)c1ccccc1 (stereo not given),–,"inconclusive: 6.31 µM [inhibitor, full curve]"
COc1ccc(NC(=S)NC(=O)c2cncc(Br)c2)c(OC)c1,–,"inconclusive: 1 µM [inhibitor, full curve, poor fit]"
Cn1cnnc1SCc1ccc(C#N)cc1,–,"inconclusive: 10 µM [inhibitor, single point]"
Cc1c([N+](=O)[O-])c([N+](=O)[O-])nn1CC(=O)NCc1cccnc1,–,"inconclusive: 10 µM [inhibitor, partial curve]"

Structure (SMILES),"activity change, negative = inhibition",Potency
CN(c1ccc(OCC(=O)Nc2ccccc2C(=O)O)cc1)S(=O)(=O)c1ccc(Cl)cc1,–,active: 3.55 µM
O=C(CNC(=S)N(Cc1ccccc1)Cc1ccccc1F)NCCc1ccc(Cl)cc1,–,"inconclusive: 10 µM [inhibitor, partial curve, poor fit]"
COc1ccc(-n2c(C)cc(SC)c(C(C)=O)c2=S)cc1,–,"inconclusive: 12.6 µM [activator, single point]"
CCC(C)/C(C)=N/NC(=O)c1cn(-c2ccccc2)nc1-c1ccccc1 (stereo not given),–,"inconclusive: 0.251 µM [activator, full curve, poor fit]"
Fc1ccccc1/C=C1\CCCC2=C1Nc1nnnn1C2c1ccccc1F (stereo not given),inactive: 1.73%,–
COc1ccccc1NC(=O)C1CCCN(C(=O)NCc2ccccc2)C1 (stereo not given),inactive: 5.19% [at 46.1 µM],–
COC(=O)c1ccc(NC(=S)N2CCN(Cc3ccc(Cl)cc3)CC2)cc1,–,"inconclusive: 0.326 µM [activator, full curve, poor fit]"
Cc1ccccc1OC1C(=O)N(Cc2ccc3c(c2)OCO3)C1c1sccc1C (stereo not given),–,"inconclusive: 25.9 µM [inhibitor, single point]"
CSc1nsc(SCC(=O)Nc2ccc(Cl)c(C(=O)O)c2)n1,inactive: -3.56% [at 46.1 µM],–
Cc1ccc(-n2c(C)nc3ccsc3c2=O)cc1,–,"inconclusive: 5.62 µM [activator, single point]"
Cc1cc(C)n(-c2ccc(F)cc2CN2CCN(Cc3ccccc3)C(CCO)C2)n1 (stereo not given),–,"inconclusive: 7.08 µM [inhibitor, partial curve, poor fit]"
Cn1c(=O)n(C)c2cc(CNCc3ccc(F)cc3)ccc21,inactive: 2.47% [at 46.1 µM],–
O=C1CNC(=S)N1c1nc(-c2ccccc2)cs1,–,"inconclusive: 22.4 µM [activator, single point]"
O=c1c2ccccc2nnn1CSc1ccc2ccccc2n1,inactive: 13.4%,–
O=C(CNCC1CCCO1)Nc1ccc(N2CCCCCC2)cc1 (stereo not given),inactive: -21.5%,–
O=C(NCCC1=CCCCC1)c1coc(=O)c(Br)c1,inactive: 5.17%,–
COc1ccc(CCNC(=O)Cc2c(C)c3ccc(O)c(C)c3oc2=O)cc1OC,inactive: -6.93% [at 46.1 µM],–
O=S(=O)([N-]c1nc2ccccc2nc1-[n+]1ccccc1)c1ccccc1,inactive: -0.384%,–
COc1ccccc1S(=O)(=O)Cc1ccc(C(=O)NCCCN2CCN(c3ccc(F)cc3)CC2)o1,–,"inconclusive: 35.5 µM [inhibitor, single point]"
CCN(CC(=O)Nc1cccc(S(=O)(=O)N2CCCC2)c1)CC(=O)Nc1ccccc1OC,–,"inconclusive: 35.5 µM [inhibitor, single point]"
O=C(Nc1nc(-c2ccc3c(c2)OCCO3)cs1)c1ccc(S(=O)(=O)N2CCCCC2)cc1,–,"inconclusive: 0.517 µM [inhibitor, full curve, poor fit]"
O=C(CN(CC1CCCO1)C(=O)CNS(=O)(=O)c1ccc(F)cc1)NCCc1ccccc1 (stereo not given),–,"inconclusive: 3.16 µM [activator, single point]"

# Among those listed so far, these contain a thiophene ring, fused or not.
Structure (SMILES),"activity change, negative = inhibition",Potency
CCOC(=O)C(=O)NCC(c1ccco1)S(=O)(=O)c1cccs1 (stereo not given),inactive: -11.8% [at 46.1 µM],–
CC(=O)N1CCN(c2nc(-c3cccs3)nc3ccccc23)CC1,–,"inconclusive: 31.6 µM [inhibitor, single point]"
CCn1c(-c2cc3c(C(F)(F)F)nn(C)c3s2)n[nH]c1=S,inactive: -25.9%,–
Cc1ccccc1OC1C(=O)N(Cc2ccc3c(c2)OCO3)C1c1sccc1C (stereo not given),–,"inconclusive: 25.9 µM [inhibitor, single point]"
Cc1ccc(-n2c(C)nc3ccsc3c2=O)cc1,–,"inconclusive: 5.62 µM [activator, single point]"
